Data published in patent US20250257123A1.
No constants are given. Whether binding was seen depends on the method and setting. Some entries that bind do so weakly or less than the wild type.

Columns and labels:
human Gremlin-1 (human) [1] = molecular target: T1, human Gremlin-1 (human) (UniProt O60565); experiment: ELISA (FIG. 2A)
T1 sequence: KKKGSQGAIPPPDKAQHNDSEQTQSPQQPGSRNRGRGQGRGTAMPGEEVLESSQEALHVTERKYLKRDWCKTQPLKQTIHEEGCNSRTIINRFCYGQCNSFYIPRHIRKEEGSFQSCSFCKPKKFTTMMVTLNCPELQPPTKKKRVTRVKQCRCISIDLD

human Gremlin-2 (human) [2] = molecular target: T2, human Gremlin-2 (human) (UniProt Q9H772); experiment: ELISA (FIG. 2A)
T2 sequence: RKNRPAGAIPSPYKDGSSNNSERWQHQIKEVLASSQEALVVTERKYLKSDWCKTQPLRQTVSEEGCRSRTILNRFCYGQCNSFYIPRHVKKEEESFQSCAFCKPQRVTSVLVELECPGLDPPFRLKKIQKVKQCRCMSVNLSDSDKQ

human Gremlin-1 (human) [3] = molecular target: T1, human Gremlin-1 (human); experiment: ELISA, coated antigen, anti-human IgG4-HRP, OD 492 nm (FIG. 2A)
human Gremlin-2 (human) [4] = molecular target: T2, human Gremlin-2 (human); experiment: as above

Measured: binding

B1: humanized 14-D10-2 variant Var_3 (antibody, human IgG4, V domains shown)
VH: EVQLVQSGPEVVKPGASVKVSCKASGYSFTGYYMHWVRQAPGQGLEWMGYFFPYNGFSNYAQKFQGRVTLTVDKSKSTAYMELSRLRSEDTATYYCARGGLGRGYFDVWGQGTLVTVSS
VL: DIQMTQSPSSLSASLGDRVTITCKASDHINNWLAWYQQKPGKAPRLLISGATSLETGVPSRFSGSGSGTDYTLTISSLQPEDVATYYCQQYWSSPRTFGGGTKLEIK
binds: all assays above

B2: humanized 14-D10-2 variant Var_7 (antibody, human IgG4, V domains shown)
VH: EVQLVQSGPEVVKPGASVKVSCKASGYSFTGYYMHWVRQAPGQGLEWMGYFFPYSGFSNYAQKFQGRVTLTVDKSKSTAYMELSRLRSEDTATYYCARGGLGRGYFDVWGQGTLVTVSS
VL: DIQMTQSPSSLSASLGDRVTITCKASDHINNWLAWYQQKPGKAPRLLISGATSLETGVPSRFSGSGSGTDYTLTISSLQPEDVATYYCQQYWSSPRTFGGGTKLEIK
binds: all assays above

B3: humanized 14-D10-2 variant Var_11 (antibody, human IgG4, V domains shown)
VH: EVQLVQSGPEVVKPGASVKVSCKASGYSFTGYYMHWVRQAPGQGLEWMGYFFPYNGFSNYAQKFQGRVTLTVDKSKSTAYMELSRLRSEDTATYYCARGGLGRGYFDVWGQGTLVTVSS
VL: DIQMTQSPSSLSASLGDRVTITCKASDHISNWLAWYQQKPGKAPRLLISGATSLETGVPSRFSGSGSGTDYTLTISSLQPEDVATYYCQQYWSSPRTFGGGTKLEIK
binds: all assays above

B4: humanized 14-D10-2 variant Var_13 (antibody, human IgG4, V domains shown)
VH: EVQLVQSGPEVVKPGASVKVSCKASGYSFTGYYMHWVKQAPGQGLEWMGYFFPYSGFSNYAQKFQGRVTLTVDKSISTAYMELSRLRSEDTAVYYCARGGLGRGYFDVWGQGTLVTVSS
VL: DIQMTQSPSSLSASLGDRVTITCKASDHISNWLAWYQQKPGKAPRLLISGATSLETGVPSRFSGSGSGTDYTLTISSLQPEDVATYYCQQYWSSPRTFGGGTKLEIK
binds: all assays above

B5: humanized 14-D10-2 variant Var_5 (antibody, human IgG4, V domains shown)
VH: EVQLVQSGPEVVKPGASVKVSCKASGYSFTGYYMHWVKQAPGQGLEWMGYFFPYSGFSNYAQKFQGRVTLTVDKSISTAYMELSRLRSEDTAVYYCARGGLGRGYFDVWGQGTLVTVSS
VL: DIQMTQSPSSLSASLGDRVTITCKASDHINNWLAWYQQKPGKAPRLLISGATSLETGVPSRFSGSGSGTDYTLTISSLQPEDVATYYCQQYWSSPRTFGGGTKLEIK
binds: all assays above

B6: chimeric antibody control (chimeric 14-D10-2) (antibody, V domains shown, not shown: a dimerising Fc or GST; large carriers)
VH: EVQLQQSGPELVKPGASVKISCKASGYSFTGYYMHWVKQSHGNILDWIGYFFPYNGFSNCNQKFKGKATLTVDKSSSTAYMELRSLTSEDSAVYYCARGGLGRGYFDVWGTGTTVTVSS
VL: DIQMTQSPSYLSVSLGGRVTITCKASDHINNWLAWYQQKPGNAPRLLISGATSLETGVPSRFSGSGSGKDYTLSITSLQTEDVATYYCQQYWSSPRTFGGGTKLEIK
binds: human Gremlin-1 (human) [1] | human Gremlin-2 (human) [2]
